Assay results from article PMC4176381.

Amino acid sequences for entries named in this document (tags omitted). Residues count along the entry.
UniProt P28159, 110-594: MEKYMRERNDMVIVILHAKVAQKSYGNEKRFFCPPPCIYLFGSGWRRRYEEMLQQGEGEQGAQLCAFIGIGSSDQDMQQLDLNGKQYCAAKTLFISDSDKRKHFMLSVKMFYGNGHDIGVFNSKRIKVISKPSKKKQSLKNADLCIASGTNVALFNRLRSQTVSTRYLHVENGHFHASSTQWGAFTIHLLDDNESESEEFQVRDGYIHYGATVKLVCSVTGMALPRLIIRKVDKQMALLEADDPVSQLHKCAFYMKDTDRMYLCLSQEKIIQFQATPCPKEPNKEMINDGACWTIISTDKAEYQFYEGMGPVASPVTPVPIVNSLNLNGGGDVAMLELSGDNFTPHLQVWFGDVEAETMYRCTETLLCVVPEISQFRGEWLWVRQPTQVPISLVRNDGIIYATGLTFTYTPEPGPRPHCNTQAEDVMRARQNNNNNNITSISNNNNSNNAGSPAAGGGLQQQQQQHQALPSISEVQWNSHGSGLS

Target: GST-Su(H) (CSL) (UniProt P28159)
Test: competition with a labelled probe
Conditions: EMSA: 150 mM KCl, 50 mM Tris pH 7.4, 1 mM DTT, 2% polyvinyl alcohol, 30 ng/ul poly(dI-dC), on ice 30 min, 25 fmol biotin probe in 5 ul, recombinant protein, residues 110-594, protein details: N-terminal GST
[1] = intermediate, detectable at 125x excess

| Sequence | binding result [1] | also measured |
| --- | --- | --- |
| ACCGAAACCCTGAGAACTGGTAGAAAG (double strand) [M6 (S5, CCTGAGAA)] | binds more weakly |  |
| ACCGAAACAATGGGAACTGGTAGAAAG (double strand) [M5 (S4, AATGGGAA)] | binds more weakly |  |
| ACCGAAACCGTGTGACCTGGTAGAAAG (double strand) [M10 (S9, CGTGTGAC)] |  | binding result (intermediate): binds more weakly |
| ACCGAAACCGTGAAAACTGGTAGAAAG (double strand) [M9 (S8, CGTGAAAA)] |  | binding result (very weak competition): binds more weakly |

The comparison behind a weaker result is the experiment's own reference, which may not be listed here.
